At least one structure is not confirmed: it was looked up by name or label, or the drawing left a doubt.
Assays:
[1] = test system: APOL1 expression; experiment: Baricitinib effect on IFN-γ-induced APOL1 upregulation in kidney organoids; format: cell-based, human; conditions: IFN-γ treatment + baricitinib
[2] = test system: kidney organoid endothelial networks; experiment: Endothelial networks and tubular structures of kidney organoids under prolonged IFN-γ treatment; format: cell-based, human; conditions: 7d IFN + baricitinib
Source text: As such, it was next determined whether JAK ½ inhibition prevents IFN-γ-induced loss of endothelial networks and disorganization of tubular structures. […] As a result, it was concluded that JAK ½ inhibition prevents IFN-γ-induced loss of endothelial networks and disorganization of tubular structures.

CCS(=O)(=O)N1CC(CC#N)(n2cc(-c3ncnc4[nH]ccc34)cn2)C1 [baricitinib]
APOL1 upregulation in EC vessels [1]: prevents APOL1 upregulation in EC vessels
APOL1 upregulation in the organoid body [1]: prevents APOL1 upregulation in the organoid body
vascular regression with prolonged IFN-γ treatment [2]: prevents vascular regression

Source: patent US20250237641A1 (priority 2021, published 2025)
